The assay addresses glucocorticoid receptor (mouse (endogenous in mpkCCD)) (UniProt P06537). In words: co-IP; anti-GR antibody (sc-393232) added to 1 mg mpkCCD lysate (1% Triton X-100, 20 mM Tris, 150 mM NaCl), 16 h at 4°C, protein G Mag Sepharose beads 5 h at 4°C; immunoblot for Actn4; cells treated with vehicle or dDAVP (1 nM, 24 h); control IgG precipitate.

Protein sequences, listed by entry. Tags and fused reporters are not part of them.
UniProt P06537: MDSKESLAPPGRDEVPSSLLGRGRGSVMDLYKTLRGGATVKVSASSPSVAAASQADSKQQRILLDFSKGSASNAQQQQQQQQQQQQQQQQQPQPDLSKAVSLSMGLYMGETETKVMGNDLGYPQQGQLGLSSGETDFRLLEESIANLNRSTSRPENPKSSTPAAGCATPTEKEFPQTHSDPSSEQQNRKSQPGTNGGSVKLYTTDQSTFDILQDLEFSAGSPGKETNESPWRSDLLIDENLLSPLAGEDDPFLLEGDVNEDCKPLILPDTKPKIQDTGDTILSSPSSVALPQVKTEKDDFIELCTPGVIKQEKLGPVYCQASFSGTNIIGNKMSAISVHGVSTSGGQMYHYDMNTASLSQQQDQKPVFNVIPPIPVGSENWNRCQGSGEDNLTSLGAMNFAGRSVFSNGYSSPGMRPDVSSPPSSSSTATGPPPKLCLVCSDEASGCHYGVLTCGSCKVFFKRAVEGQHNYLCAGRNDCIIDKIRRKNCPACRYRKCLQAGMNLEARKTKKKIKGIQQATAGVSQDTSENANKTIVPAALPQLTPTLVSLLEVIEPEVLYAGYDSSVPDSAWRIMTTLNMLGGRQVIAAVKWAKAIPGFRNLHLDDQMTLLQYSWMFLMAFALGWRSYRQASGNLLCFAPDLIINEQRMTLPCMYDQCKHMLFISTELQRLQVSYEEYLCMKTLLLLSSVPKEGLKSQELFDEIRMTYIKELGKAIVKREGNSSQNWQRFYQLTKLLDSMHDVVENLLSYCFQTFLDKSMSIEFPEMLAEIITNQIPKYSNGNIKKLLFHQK
UniProt P57780: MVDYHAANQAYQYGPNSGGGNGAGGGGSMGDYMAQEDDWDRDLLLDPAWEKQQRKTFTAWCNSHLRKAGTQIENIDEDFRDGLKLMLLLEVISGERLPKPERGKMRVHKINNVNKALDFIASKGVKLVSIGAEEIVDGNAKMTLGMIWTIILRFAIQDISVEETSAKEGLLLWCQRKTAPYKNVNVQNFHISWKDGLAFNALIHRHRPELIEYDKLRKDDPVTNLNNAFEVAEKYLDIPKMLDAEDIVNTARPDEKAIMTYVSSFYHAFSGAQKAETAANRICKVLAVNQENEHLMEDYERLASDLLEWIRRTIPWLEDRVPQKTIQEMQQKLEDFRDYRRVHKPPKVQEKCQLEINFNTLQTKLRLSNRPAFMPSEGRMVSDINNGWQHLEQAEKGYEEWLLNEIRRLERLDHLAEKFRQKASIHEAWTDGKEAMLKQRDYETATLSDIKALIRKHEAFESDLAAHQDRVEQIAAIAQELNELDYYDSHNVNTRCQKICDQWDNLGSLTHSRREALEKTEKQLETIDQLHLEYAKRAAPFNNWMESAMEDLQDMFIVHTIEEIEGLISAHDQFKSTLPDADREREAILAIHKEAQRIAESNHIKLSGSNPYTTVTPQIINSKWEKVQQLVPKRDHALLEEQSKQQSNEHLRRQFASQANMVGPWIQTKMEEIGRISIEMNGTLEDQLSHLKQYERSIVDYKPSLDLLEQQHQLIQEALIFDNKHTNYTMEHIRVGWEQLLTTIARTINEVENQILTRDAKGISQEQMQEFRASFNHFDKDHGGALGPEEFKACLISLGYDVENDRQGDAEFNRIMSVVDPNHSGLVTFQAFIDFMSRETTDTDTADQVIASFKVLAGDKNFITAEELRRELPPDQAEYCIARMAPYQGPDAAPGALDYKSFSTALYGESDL

Results are given in words; binding and its absence hold for the method and conditions named. In cells and extracts the contact can be indirect. Some entries that bind do so weakly or less than the wild type.

On to α-actinin 4 (from UniProt P57780 1-912), for which the binding entry is listed as “binds”.

The record behind these values is paper PMC8674656.
